Test results from paper PMC3819369.
Results are given in words; binding and its absence hold for the method and conditions named. Binding seen in cells or lysates may run through a third protein. These calls come from enrichment with a bait or labelling near it, and not all partners need be listed.

By UniProt entry, the sequences of proteins in these tests, tags left out.
UniProt P49789: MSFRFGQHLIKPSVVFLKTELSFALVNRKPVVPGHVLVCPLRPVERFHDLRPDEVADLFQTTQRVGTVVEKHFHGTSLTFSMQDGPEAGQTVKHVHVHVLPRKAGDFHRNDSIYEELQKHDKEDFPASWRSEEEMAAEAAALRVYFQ
UniProt P07355: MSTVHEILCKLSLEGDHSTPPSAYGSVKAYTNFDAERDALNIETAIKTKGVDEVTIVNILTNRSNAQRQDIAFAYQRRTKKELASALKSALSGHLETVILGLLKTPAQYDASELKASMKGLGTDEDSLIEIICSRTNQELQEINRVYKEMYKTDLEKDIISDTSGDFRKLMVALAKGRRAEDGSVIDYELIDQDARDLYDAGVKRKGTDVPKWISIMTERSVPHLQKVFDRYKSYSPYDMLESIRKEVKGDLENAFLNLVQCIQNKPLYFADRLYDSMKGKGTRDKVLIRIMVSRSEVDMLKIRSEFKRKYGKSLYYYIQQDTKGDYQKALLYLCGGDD
UniProt P04350: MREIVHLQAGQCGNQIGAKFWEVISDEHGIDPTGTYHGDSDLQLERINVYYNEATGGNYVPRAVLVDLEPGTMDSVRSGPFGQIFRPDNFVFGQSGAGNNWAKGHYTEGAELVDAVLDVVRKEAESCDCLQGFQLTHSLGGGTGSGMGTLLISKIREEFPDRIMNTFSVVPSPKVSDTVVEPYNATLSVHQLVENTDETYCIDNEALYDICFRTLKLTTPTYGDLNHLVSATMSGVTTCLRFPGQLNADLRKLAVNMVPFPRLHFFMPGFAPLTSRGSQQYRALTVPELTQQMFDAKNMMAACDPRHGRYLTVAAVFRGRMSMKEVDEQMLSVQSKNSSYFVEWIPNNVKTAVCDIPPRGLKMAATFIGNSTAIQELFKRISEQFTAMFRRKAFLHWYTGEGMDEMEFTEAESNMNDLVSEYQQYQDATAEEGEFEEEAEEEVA
UniProt P14618: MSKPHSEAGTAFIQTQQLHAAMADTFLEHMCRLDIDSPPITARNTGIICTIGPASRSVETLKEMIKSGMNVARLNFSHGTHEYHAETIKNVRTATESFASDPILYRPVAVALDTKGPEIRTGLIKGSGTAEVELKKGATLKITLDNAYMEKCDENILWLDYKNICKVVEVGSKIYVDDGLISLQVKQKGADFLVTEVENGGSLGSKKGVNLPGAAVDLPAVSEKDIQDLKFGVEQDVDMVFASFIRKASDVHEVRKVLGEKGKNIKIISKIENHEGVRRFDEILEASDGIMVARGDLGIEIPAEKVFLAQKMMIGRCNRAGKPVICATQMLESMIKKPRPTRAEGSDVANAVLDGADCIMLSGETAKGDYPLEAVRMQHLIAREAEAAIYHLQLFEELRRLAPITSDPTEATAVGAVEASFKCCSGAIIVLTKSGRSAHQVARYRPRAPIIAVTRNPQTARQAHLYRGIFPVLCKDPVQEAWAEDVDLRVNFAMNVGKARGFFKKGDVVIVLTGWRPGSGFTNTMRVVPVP
UniProt P06733: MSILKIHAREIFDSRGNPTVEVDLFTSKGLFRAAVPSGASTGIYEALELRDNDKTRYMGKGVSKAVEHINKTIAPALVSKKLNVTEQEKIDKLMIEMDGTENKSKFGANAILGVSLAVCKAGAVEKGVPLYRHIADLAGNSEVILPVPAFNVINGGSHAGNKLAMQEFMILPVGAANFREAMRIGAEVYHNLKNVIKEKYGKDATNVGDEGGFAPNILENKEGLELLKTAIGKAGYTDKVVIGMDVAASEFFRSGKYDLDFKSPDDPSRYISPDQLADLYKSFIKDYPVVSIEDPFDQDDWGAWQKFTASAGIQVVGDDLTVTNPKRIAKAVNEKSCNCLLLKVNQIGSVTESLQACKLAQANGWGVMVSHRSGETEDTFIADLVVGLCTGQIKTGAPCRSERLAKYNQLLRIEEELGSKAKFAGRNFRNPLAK

B1: Aldehyde dehydrogenase (protein, UniProt P00352 1-501)
chain: MSSSGTPDLPVLLTDLKIQYTKIFINNEWHDSVSGKKFPVFNPATEEELCQVEEGDKEDVDKAVKAARQAFQIGSPWRTMDASERGRLLYKLADLIERDRLLLATMESMNGGKLYSNAYLNDLAGCIKTLRYCAGWADKIQGRTIPIDGNFFTYTRHEPIGVCGQIIPWNFPLVMLIWKIGPALSCGNTVVVKPAEQTPLTALHVASLIKEAGFPPGVVNIVPGYGPTAGAAISSHMDIDKVAFTGSTEVGKLIKEAAGKSNLKRVTLELGGKSPCIVLADADLDNAVEFAHHGVFYHQGQCCIAASRIFVEESIYDEFVRRSVERAKKYILGNPLTPGVTQGPQIDKEQYDKILDLIESGKKEGAKLECGGGPWGNKGYFVQPTVFSNVTDEMRIAKEEIFGPVQQIMKFKSLDDVIKRANNTFYGLSAGVFTKDIDKAITISSALQAGTVWVNCYGVVSAQCPFGGFKMSGNGRELGEYGFHEYTEVKTVTVKISQKNS
B2: Peroxidoxin 1 (protein, UniProt Q06830 1-199)
chain: MSSGNAKIGHPAPNFKATAVMPDGQFKDISLSDYKGKYVVFFFYPLDFTFVCPTEIIAFSDRAEEFKKLNCQVIGASVDSHFCHLAWVNTPKKQGGLGPMNIPLVSDPKRTIAQDYGVLKADEGISFRGLFIIDDKGILRQITVNDLPVGRSVDETLRLVQAFQFTDKHGEVCPAGWKPGSDTIKPDVQKSKEYFSKQK
B3: Mitochondrial malate dehydrogenase (protein, UniProt P40926 25-338)
chain: AKVAVLGASGGIGQPLSLLLKNSPLVSRLTLYDIAHTPGVAADLSHIETKAAVKGYLGPEQLPDCLKGCDVVVIPAGVPRKPGMTRDDLFNTNATIVATLTAACAQHCPEAMICVIANPVNSTIPITAEVFKKHGVYNPNKIFGVTTLDIVRANTFVAELKGLDPARVNVPVIGGHAGKTIIPLISQCTPKVDFPQDQLTALTGRIQEAGTEVVKAKAGAGSATLSMAYAGARFVFSLVDAMNGKEGVVECSFVKSQETECTYFSTPLLLGKKGIEKNLGIGKVSSFEEKMISDAIPELKASIKKGEDFVKTLK

Biological target: Fhit-His6 recombinant protein (human) (UniProt P49789)
Experiment: affinity purification with mass spectrometry; A549 cells infected with AdFHIT-His6 (AdFHIT as control) at MOI50, treated with the cross-linker DSP in living cells; membrane enriched fraction; Fhit-His6 isolated with nickel beads; DTT to cleave DSP, trypsin, LC-MS/MS

binding, binds:
Annexin A2 (from UniProt P07355 1-339), Tubulin 5beta (from UniProt P04350 1-444), Pyruvate kinase (from UniProt P14618 1-531), 2-phosphopyruvate-hydratase alpha enolase (from UniProt P06733 1-434), B1, B2, B3
